{"source": "PubChem BioAssay AID504786 (Drosophila RNAi Screening Center, 2011)", "screen": "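Knock-downs reducing HIF reporter induction by the iron chelator DFO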 (primary screen)", "cell system": "Drosophila S2 cells with a stable HIF luciferase reporter", "reagents": "long dsRNA against Drosophila genes, about 0.2 µg dsRNA per well of a 384-well plate", "duration": "three days of knock-down, then 20 h of DFO before reading", "conditions": "desferrioxamine (DFO) at 100 µM, an iron chelator that mimics hypoxia, for 20 h", "measured": "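HIF reporter luminescence in cells given 100 µM DFO for 20 h, using the mouse ldh-a hypoxia-response element, scored as per-plate z-scores; higher means greater loss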", "scale": "z-score: higher = stronger loss of HIF reporter signal", "note": "The deposit covers about 21,000 reagents; this is a random part of those with a known target gene and a result. 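Primary screen; positive scores mean lost reporter signal, so the sign may be inverted from the usual convention.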 A plus sign joins genes that one reagent is predicted to hit. Further read-outs or replicates are left out here."}
{"Gene": "CG32137", "dsRNA": "DRSC10271", "z-score, replicate 1": -0.3}
{"Gene": "CG32137", "dsRNA": "DRSC10272", "z-score, replicate 1": 0}
{"Gene": "CG34033", "dsRNA": "DRSC05190", "z-score, replicate 1": -0.1}
{"Gene": "mmy", "dsRNA": "DRSC02002", "z-score, replicate 1": -0.3}
{"Gene": "CaMKII", "dsRNA": "DRSC17214", "z-score, replicate 1": -0.4}
{"Gene": "Ugt35B1", "dsRNA": "DRSC16893", "z-score, replicate 1": -0.4}
{"Gene": "Sec10", "dsRNA": "DRSC17053", "z-score, replicate 1": -0.3}
{"Gene": "CG13994", "dsRNA": "DRSC02326", "z-score, replicate 1": -0.3}
{"Gene": "CG5323", "dsRNA": "DRSC06929", "z-score, replicate 1": -0.2}
{"Gene": "CG15923", "dsRNA": "DRSC15129", "z-score, replicate 1": -0.2}
{"Gene": "CG8160", "dsRNA": "DRSC07086", "z-score, replicate 1": -0.4}
{"Gene": "CG2915", "dsRNA": "DRSC06842", "z-score, replicate 1": -0.3}
{"Gene": "Dnai2", "dsRNA": "DRSC10575", "z-score, replicate 1": -0.2}
{"Gene": "Bub3", "dsRNA": "DRSC14168", "z-score, replicate 1": -0.2}
{"Gene": "Fdx1", "dsRNA": "DRSC11167", "z-score, replicate 1": 0.1}
{"Gene": "santa-maria", "dsRNA": "DRSC00994", "z-score, replicate 1": 0.2}
{"Gene": "santa-maria", "dsRNA": "DRSC02180", "z-score, replicate 1": -0.3}
{"Gene": "GNBP2", "dsRNA": "DRSC10404", "z-score, replicate 1": -0.3}
{"Gene": "didum", "dsRNA": "DRSC07603", "z-score, replicate 1": -0.3}
{"Gene": "CG1983", "dsRNA": "DRSC15410", "z-score, replicate 1": -0.1}
{"Gene": "CG42713", "dsRNA": "DRSC01050", "z-score, replicate 1": 0.1}
{"Gene": "CG14244", "dsRNA": "DRSC14739", "z-score, replicate 1": -0.6}
{"Gene": "cert", "dsRNA": "DRSC09674", "z-score, replicate 1": -0.2}
{"Gene": "Cpr65Az", "dsRNA": "DRSC09882", "z-score, replicate 1": -0.4}
{"Gene": "rdgB", "dsRNA": "DRSC20365", "z-score, replicate 1": -1.2}

The list goes on, starting with the last 5 of the part before.
{"Gene": "CG42713", "dsRNA": "DRSC01050", "z-score, replicate 1": 0.1}
{"Gene": "CG14244", "dsRNA": "DRSC14739", "z-score, replicate 1": -0.6}
{"Gene": "cert", "dsRNA": "DRSC09674", "z-score, replicate 1": -0.2}
{"Gene": "Cpr65Az", "dsRNA": "DRSC09882", "z-score, replicate 1": -0.4}
{"Gene": "rdgB", "dsRNA": "DRSC20365", "z-score, replicate 1": -1.2}
{"Gene": "CG12519", "dsRNA": "DRSC10311", "z-score, replicate 1": -0.3}
{"Gene": "PGRP-LD + Cralbp + Pmi", "dsRNA": "DRSC09743", "z-score, replicate 1": -0.3}
{"Gene": "CG2604", "dsRNA": "DRSC12313", "z-score, replicate 1": -0.4}
{"Gene": "Etl1", "dsRNA": "DRSC02911", "z-score, replicate 1": -0.2}
{"Gene": "mRpL20", "dsRNA": "DRSC09828", "z-score, replicate 1": 1}
{"Gene": "CG5756", "dsRNA": "DRSC06950", "z-score, replicate 1": -0.3}
{"Gene": "Sr-CIV", "dsRNA": "DRSC00575", "z-score, replicate 1": -0.3}
{"Gene": "Fancm", "dsRNA": "DRSC16348", "z-score, replicate 1": -0.1}
{"Gene": "CG6013", "dsRNA": "DRSC15947", "z-score, replicate 1": -0.3}
{"Gene": "CG11771", "dsRNA": "DRSC14379", "z-score, replicate 1": -0.2}
{"Gene": "Nap1", "dsRNA": "DRSC04626", "z-score, replicate 1": -0.3}
{"Gene": "CG10916", "dsRNA": "DRSC06012", "z-score, replicate 1": -0.2}
{"Gene": "CG8188", "dsRNA": "DRSC20090", "z-score, replicate 1": -0.3}
{"Gene": "CG2187", "dsRNA": "DRSC15425", "z-score, replicate 1": -0.3}
{"Gene": "Ir64a", "dsRNA": "DRSC09759", "z-score, replicate 1": 0.4}
{"Gene": "Ir64a", "dsRNA": "DRSC09760", "z-score, replicate 1": -0.4}
{"Gene": "ci", "dsRNA": "DRSC17172", "z-score, replicate 1": -0.3}
{"Gene": "Osi15", "dsRNA": "DRSC12178", "z-score, replicate 1": -0.1}
{"Gene": "CG14615", "dsRNA": "DRSC20627", "z-score, replicate 1": -0.2}
{"Gene": "caly", "dsRNA": "DRSC07182", "z-score, replicate 1": -0.3}
{"Gene": "Ac13E", "dsRNA": "DRSC19325", "z-score, replicate 1": -0.4}
{"Gene": "Pld3", "dsRNA": "DRSC03167", "z-score, replicate 1": -0.2}
{"Gene": "PRL-1", "dsRNA": "DRSC03393", "z-score, replicate 1": -0.3}
{"Gene": "CG13334", "dsRNA": "DRSC06369", "z-score, replicate 1": -0.3}
{"Gene": "NijC", "dsRNA": "DRSC14851", "z-score, replicate 1": -0.3}
{"Gene": "CG10674", "dsRNA": "DRSC09775", "z-score, replicate 1": -0.3}
